Paper PMC6708219
These are yes or no findings as the source states them, for the method shown. In cells and extracts the contact can be indirect. Some binding calls cover weakened binding; strength is not graded here.

By UniProt entry, the sequences of proteins in these tests, tags left out. Residues count along the entry.
UniProt P21860, residues 20-1342: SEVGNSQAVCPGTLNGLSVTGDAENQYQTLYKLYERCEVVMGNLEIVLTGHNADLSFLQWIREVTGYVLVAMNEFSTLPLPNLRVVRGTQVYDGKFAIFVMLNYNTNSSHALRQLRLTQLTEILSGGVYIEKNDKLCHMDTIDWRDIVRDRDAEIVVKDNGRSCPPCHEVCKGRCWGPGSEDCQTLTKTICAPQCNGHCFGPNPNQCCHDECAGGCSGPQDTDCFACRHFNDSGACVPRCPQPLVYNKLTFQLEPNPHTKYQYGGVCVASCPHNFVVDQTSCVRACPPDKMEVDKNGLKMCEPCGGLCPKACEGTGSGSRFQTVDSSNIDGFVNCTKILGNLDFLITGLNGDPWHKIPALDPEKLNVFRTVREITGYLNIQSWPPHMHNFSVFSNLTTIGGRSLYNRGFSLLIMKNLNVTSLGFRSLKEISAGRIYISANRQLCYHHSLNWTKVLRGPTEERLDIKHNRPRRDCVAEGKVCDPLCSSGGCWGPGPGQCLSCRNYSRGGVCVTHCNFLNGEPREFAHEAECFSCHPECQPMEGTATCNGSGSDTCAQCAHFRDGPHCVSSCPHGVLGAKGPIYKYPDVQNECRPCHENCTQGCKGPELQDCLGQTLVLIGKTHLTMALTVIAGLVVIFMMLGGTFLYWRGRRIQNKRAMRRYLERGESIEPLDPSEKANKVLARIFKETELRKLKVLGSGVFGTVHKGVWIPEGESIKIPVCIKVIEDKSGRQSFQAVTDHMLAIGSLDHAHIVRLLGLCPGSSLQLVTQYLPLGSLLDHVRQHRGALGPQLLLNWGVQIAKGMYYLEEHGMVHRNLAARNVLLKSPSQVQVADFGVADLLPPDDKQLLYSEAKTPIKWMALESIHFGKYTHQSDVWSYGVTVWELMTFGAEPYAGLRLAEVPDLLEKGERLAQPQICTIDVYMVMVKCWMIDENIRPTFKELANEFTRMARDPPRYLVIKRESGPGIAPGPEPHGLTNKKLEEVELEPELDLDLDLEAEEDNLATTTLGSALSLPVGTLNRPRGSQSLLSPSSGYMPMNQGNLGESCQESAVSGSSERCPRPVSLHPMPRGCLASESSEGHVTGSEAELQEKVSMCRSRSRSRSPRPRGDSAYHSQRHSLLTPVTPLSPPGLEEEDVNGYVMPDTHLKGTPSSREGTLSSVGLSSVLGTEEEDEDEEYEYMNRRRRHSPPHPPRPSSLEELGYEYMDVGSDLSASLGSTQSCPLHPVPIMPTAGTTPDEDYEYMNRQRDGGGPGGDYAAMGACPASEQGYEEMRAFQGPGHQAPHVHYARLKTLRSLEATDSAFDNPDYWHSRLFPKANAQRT

Columns and labels:
[1] = target: TRAIL-R2/DR5 (human (endogenous in BxPC3)), O14763; experiment: co-IP; BxPC3 cells incubated with 9F7-F11 (24 h to 120 h); 2 mg lysate precipitated overnight at 4 C with Dynabeads cross-linked with anti-DR5 antibody D4E7, ten washes in CHAPS buffer; western blot for caspase-8 and FADD; settings: remark: other sources report otherwise
[2] = target: HER3 (ErbB3) receptor (human (endogenous in BxPC3)) (UniProt P21860); experiment: co-IP; BxPC3 cells incubated with medium, NRG1 (100 ng/ml) and/or 9F7-F11 (50 ug/ml) for various times; 2 mg lysate in CHAPS buffer precipitated with anti-HER3 antibody 2F12 (C-terminal tail) and Dynabeads at 4 C; western blot for ITCH and USP8

| Binder | binding [1] | binding [2] |
| --- | --- | --- |
| pro-caspase 8, Q14790 1-479 (enzyme) MDFSRNLYDIGEQLDSEDLASLKFLSLDYIPQRKQEPIKDALMLFQRLQEKRMLEESNLSFLKELLFRINRLDLLITYLNTRKEEMERELQTPGRAQISAYRVMLYQISEEVSRSELRSFKFLLQEEISKCKLDDDMNLLDIFIEMEKRVILGEGKLDILKRVCAQINKSLLKIINDYEEFSKERSSSLEGSPDEFSNGEELCGVMTISDSPREQDSESQTLDKVYQMKSKPRGYCLIINNHNFAKAREKVPKLHSIRDRNGTHLDAGALTTTFEELHFEIKPHDDCTVEQIYEILKIYQLMDHSNMDCFICCILSHGDKGIIYGTDGQEAPIYELTSQFTGLKCPSLAGKPKVFFIQACQGDNYQKGIPVETDSEEQPYLEMDLSSPQTRYIPDEADFLLGMATVNNCVSYRNPAEGTWYIQSLCQSLRERCPRGDDILTILTEVNYEVSNKDDKKNMGKQMPQPTFTLRKKLVFPSD | binds |  |
| Ubiquitin-specific peptidase 8 (USP8) (enzyme, UniProt P40818 1-1118) MPAVASVPKELYLSSSLKDLNKKTEVKPEKISTKSYVHSALKIFKTAEECRLDRDEERAYVLYMKYVTVYNLIKKRPDFKQQQDYFHSILGPGNIKKAVEEAERLSESLKLRYEEAEVRKKLEEKDRQEEAQRLQQKRQETGREDGGTLAKGSLENVLDSKDKTQKSNGEKNEKCETKEKGAITAKELYTMMTDKNISLIIMDARRMQDYQDSCILHSLSVPEEAISPGVTASWIEAHLPDDSKDTWKKRGNVEYVVLLDWFSSAKDLQIGTTLRSLKDALFKWESKTVLRNEPLVLEGGYENWLLCYPQYTTNAKVTPPPRRQNEEVSISLDFTYPSLEESIPSKPAAQTPPASIEVDENIELISGQNERMGPLNISTPVEPVAASKSDVSPIIQPVPSIKNVPQIDRTKKPAVKLPEEHRIKSESTNHEQQSPQSGKVIPDRSTKPVVFSPTLMLTDEEKARIHAETALLMEKNKQEKELRERQQEEQKEKLRKEEQEQKAKKKQEAEENEITEKQQKAKEEMEKKESEQAKKEDKETSAKRGKEITGVKRQSKSEHETSDAKKSVEDRGKRCPTPEIQKKSTGDVPHTSVTGDSGSGKPFKIKGQPESGILRTGTFREDTDDTERNKAQREPLTRARSEEMGRIVPGLPSGWAKFLDPITGTFRYYHSPTNTVHMYPPEMAPSSAPPSTPPTHKAKPQIPAERDREPSKLKRSYSSPDITQAIQEEEKRKPTVTPTVNRENKPTCYPKAEISRLSASQIRNLNPVFGGSGPALTGLRNLGNTCYMNSILQCLCNAPHLADYFNRNCYQDDINRSNLLGHKGEVAEEFGIIMKALWTGQYRYISPKDFKITIGKINDQFAGYSQQDSQELLLFLMDGLHEDLNKADNRKRYKEENNDHLDDFKAAEHAWQKHKQLNESIIVALFQGQFKSTVQCLTCHKKSRTFEAFMYLSLPLASTSKCTLQDCLRLFSKEEKLTDNNRFYCSHCRARRDSLKKIEIWKLPPVLLVHLKRFSYDGRWKQKLQTSVDFPLENLDLSQYVIGPKNNLKKYNLFSVSNHYGGLDGGHYTAYCKNAARQRWFKFDDHEVSDISVSSVKSSAAYILFYTSLGPRVTDVAT |  | binds |
